{"source": "the supplement of paper PMC11150407", "note": "Structures can show the parent of a compound that is named as a salt. In all, about 2,100 compounds went through this assay and about 180 (8.6%) showed an effect of 50% or more. Some of the results follow.", "data": [{"test_system": "MOLM1 and UCSD/AML1 (averaged)", "assay": "cell viability relative to DMSO control (POC); higher = less growth inhibition", "conditions": "1 µM; 72 h", "description": "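Primary viability screen in the 3q26 EVI1-high AML cell lines MOLM1 and UCSD/AML1 (1.5e3 cells/well, 384-well), compounds at 1 uM for 72 h. ATP CellTiter-Glo read-out given as percent of viable cells over DMSO control (POC), averaged over duplicates. DMSO was the negative control and 5 uM etoposide the positive control. This mapping covers the MicroSource Spectrum and Selleck anticancer libraries (drug names).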", "units": {"cell viability": "%"}, "values": [{"smiles": "CC1CCc2cc(F)cc3c(=O)c(C(=O)O)cn1c23", "note": "(centres undefined)", "cell viability": 99.7}, {"smiles": "COc1cc2c(cc1OC)-c1c(oc3cc(O)cc(O)c3c1=O)CO2", "cell viability": 103}, {"smiles": "CCCCOc1ccc(OCCCN2CCOCC2)cc1", "cell viability": 97.5}, {"smiles": "CCOC(=O)C1=C(C)NC(C)=C(C(=O)OC)C1c1cccc([N+](=O)[O-])c1", "note": "(centres undefined)", "cell viability": 89.3}, {"smiles": "CC1(C)S[C@@H]2[C@H](N3C(=O)[C@@H](c4ccccc4)NC3(C)C)C(=O)N2[C@H]1C(=O)O", "cell viability": 98.2}, {"smiles": "CC(C)=CCc1c(O)cc2occ(-c3ccc4c(c3)OCO4)c(=O)c2c1O", "cell viability": 100}, {"smiles": "CCn1cc(C(=O)O)c(=O)c2cc(F)c(N3CCNCC3)cc21", "cell viability": 99.5}, {"smiles": "O=c1c(O)c(-c2ccc(O)c(O)c2)oc2c(O[C@@H]3O[C@H](CO)[C@@H](O)[C@H](O)[C@H]3O)c(O)cc(O)c12", "cell viability": 91.3}, {"smiles": "CNC(=O)c1ccccc1Sc1ccc2c(/C=C/c3ccccn3)n[nH]c2c1", "note": "[Axitinib]", "cell viability": 19.1}, {"smiles": "CC(CN1c2ccccc2Sc2ccccc21)N(C)C", "note": "(centres undefined)", "cell viability": 99.4}, {"smiles": "NS(=O)(=O)c1cc2c(cc1C(F)(F)F)NC(Cc1ccccc1)NS2(=O)=O", "note": "(centres undefined)", "cell viability": 99.4}, {"smiles": "O=C(NC1CCNCC1)c1n[nH]cc1NC(=O)c1c(Cl)cccc1Cl", "cell viability": 13.3}, {"smiles": "CC[C@H](Nc1ncnc2[nH]cnc12)c1nc2cccc(F)c2c(=O)n1-c1ccccc1", "cell viability": 55.9}, {"smiles": "CN(C)CCCC1(c2ccc(F)cc2)OCc2cc(C#N)ccc21", "note": "(centres undefined)", "cell viability": 115}, {"smiles": "CCCC(CCC)C(=O)O", "note": "[Valproic acid sodium salt (Sodium valproate)]", "cell viability": 104}, {"smiles": "CCCC(CCC)C(=O)O", "cell viability": 96.7}, {"smiles": "Cc1onc(-c2ccccc2)c1C(=O)N[C@@H]1C(=O)N2[C@@H]1SC(C)(C)[C@@H]2C(=O)O", "cell viability": 91.8}, {"smiles": "OCC(O)CN1CCN(c2ccccc2)CC1", "note": "(centres undefined)", "cell viability": 103}, {"smiles": "COc1cc2c(cc1OC)C(=O)OC2", "cell viability": 103}, {"smiles": "COC1=CC(=O)C[C@@H](C)[C@]12Oc1c(Cl)c(OC)cc(OC)c1C2=O", "cell viability": 97.8}, {"smiles": "CCC(=O)NCC[C@@H]1CCc2ccc3c(c21)CCO3", "cell viability": 98.1}, {"smiles": "CC[C@H](/C=C/[C@@H](C)[C@H]1CC[C@H]2[C@@H]3CCC4=CC(=O)CC[C@]4(C)[C@H]3CC[C@]12C)C(C)C", "cell viability": 108}, {"smiles": "COc1c2c(cc3occ(-c4ccc5c(c4)OCO5)c(=O)c13)OC(C)(C)C=C2", "cell viability": 128}, {"smiles": "COc1ccc(-c2coc3cc(O)cc(O)c3c2=O)cc1", "cell viability": 106}, {"smiles": "COc1ccc(CC(=O)c2ccc(O)cc2O)cc1", "cell viability": 107}, {"smiles": "CCOC(=O)c1ccc(O)cc1", "cell viability": 102}, {"smiles": "COc1ccc2cc1Oc1ccc(cc1)C[C@H]1c3c(cc4c(c3Oc3cc5c(cc3OC)CCN(C)[C@@H]5C2)OCO4)CCN1C", "cell viability": 81.5}, {"smiles": "O=C(O)c1ccccc1Nc1cccc(OCc2ccc3ccccc3n2)c1", "cell viability": 91.3}, {"smiles": "COc1ccc(COc2cc3oc(=O)c4cc(C(C)O)ccc4c3cc2OC)cc1", "note": "(centres undefined) [Palomid 529]", "cell viability": 87.1}, {"smiles": "Cc1c(OCC(F)(F)F)ccnc1C[S+]([O-])c1nc2ccccc2[nH]1", "note": "(centres undefined)", "cell viability": 87.6}, {"smiles": "CC[C@@H]1C(=O)N(C)c2cnc(Nc3ccc(C(=O)NC4CCN(C)CC4)cc3OC)nc2N1C1CCCC1", "cell viability": 13.2}, {"smiles": "Cn1c(=O)c2c(ncn2C)n(C)c1=O", "cell viability": 112}, {"smiles": "O=C(O)c1cc(=O)c2c(OCC(O)COc3cccc4oc(C(=O)O)cc(=O)c34)cccc2o1", "cell viability": 99.5}, {"smiles": "CCCCC[C@H](CC(=O)NO)C(=O)N[C@H](C(=O)N1CCC[C@H]1CO)C(C)C", "cell viability": 93.3}, {"smiles": "C=CCc1ccccc1OCC(O)CNC(C)C", "note": "(centres undefined)", "cell viability": 89.4}, {"smiles": "NC[C@H]1CC[C@H](C(=O)O)CC1", "cell viability": 115}, {"smiles": "Oc1c(Cl)cc(Cl)cc1Sc1cc(Cl)cc(Cl)c1O", "cell viability": 98.8}, {"smiles": "CCCCOc1ccc(CC(=O)NO)cc1", "cell viability": 115}, {"smiles": "CC(=O)OC(C)C[N+](C)(C)C", "note": "(centres undefined)", "cell viability": 89.5}, {"smiles": "Nc1nc(=O)c2c([nH]1)NCC(CNc1ccc(C(=O)N[C@@H](CCC(=O)O)C(=O)O)cc1)N2C=O", "note": "(some centres undefined)", "cell viability": 100}, {"smiles": "Nc1nc(=O)c2c([nH]1)NCC(CNc1ccc(C(=O)N[C@@H](CCC(=O)O)C(=O)O)cc1)N2C=O", "note": "(some centres undefined) [Leucovorin Calcium]", "cell viability": 99.3}, {"smiles": "Cc1cccc(Nc2nc(-c3ccncc3)cs2)c1", "cell viability": 98.9}, {"smiles": "CN(C)CCC(c1ccccc1)c1ccccn1", "note": "(centres undefined)", "cell viability": 103}, {"smiles": "O=C(O)/C=C/C=C/c1ccc2c(c1)OCO2", "cell viability": 109}, {"smiles": "CC(C)CCC[C@@H](C)[C@H]1CC[C@H]2[C@@H]3CC=C4C[C@@H](O)CC[C@]4(C)[C@H]3CC[C@]12C", "cell viability": 105}, {"smiles": "CCOc1ccc(Cc2cc([C@@H]3O[C@H](CO)[C@@H](O)[C@H](O)[C@H]3O)ccc2Cl)cc1", "note": "[Dapagliflozin]", "cell viability": 128}, {"smiles": "CC[C@]1(O)C[C@@H]2CN(CCc3c([nH]c4ccccc34)[C@@](C(=O)OC)(c3cc4c(cc3OC)N(C)[C@H]3[C@@](O)(C(=O)OC)[C@H](OC(C)=O)[C@]5(CC)C=CCN6CC[C@]43[C@@H]65)C2)C1", "note": "[Vinblastine]", "cell viability": 8.43}, {"smiles": "CC[C@]1(O)C[C@@H]2CN(CCc3c([nH]c4ccccc34)[C@@](C(=O)OC)(c3cc4c(cc3OC)N(C)[C@H]3[C@@](O)(C(=O)OC)[C@H](OC(C)=O)[C@]5(CC)C=CCN6CC[C@]43[C@@H]65)C2)C1", "cell viability": 7.14}, {"smiles": "C[C@H]1CC[C@@H](C(C)(C)O)CC2=C1CC[C@@H]2C", "cell viability": 94.4}, {"smiles": "CC(=O)[C@H]1CC[C@H]2[C@@H]3CC=C4C[C@@H](OC(=O)CCC(=O)O)CC[C@]4(C)[C@H]3CC[C@]12C", "cell viability": 80.6}, {"smiles": "CCN(CCCc1ccccc1)CCCc1ccccc1", "cell viability": 96.5}, {"smiles": "CCCCC(CC)COC(=O)c1ccccc1O", "note": "(centres undefined)", "cell viability": 93.2}, {"smiles": "O=P(O)(O)C(O)(Cc1cccnc1)P(=O)(O)O", "cell viability": 76.8}, {"smiles": "O=C(O)c1cc(O)c(O)c(O)c1", "cell viability": 104}, {"smiles": "CCN(CC)C(=O)N1CCN(C)CC1", "cell viability": 113}, {"smiles": "Cn1cnc(N)c2ncnc1-2", "note": "[3-Methyladenine (3-MA)]", "cell viability": 90.3}, {"smiles": "CC(C)=CCC/C(C)=C/COc1ccc2ccc(=O)oc2c1", "cell viability": 92.6}, {"smiles": "CCCC(C(=O)OCCN(CC)CC)(c1ccccc1)c1ccccc1", "cell viability": 96.5}, {"smiles": "CN1CCC[C@H]1c1cccnc1", "cell viability": 115}, {"smiles": "O=S(=O)(O)CCSSCCS(=O)(=O)O", "note": "[Dimesna]", "cell viability": 112}, {"smiles": "NC(=O)NO", "cell viability": 102}, {"smiles": "Clc1ccccc1C(c1ccccc1)(c1ccccc1)n1ccnc1", "cell viability": 94.4}, {"smiles": "CO/N=C1\\CN(c2nc3c(cc2F)c(=O)c(C(=O)O)cn3C2CC2)CC1CN", "note": "(centres undefined)", "cell viability": 90.1}, {"smiles": "Clc1ccc(COC(Cn2ccnc2)c2ccc(Cl)cc2Cl)cc1", "note": "(centres undefined)", "cell viability": 87}, {"smiles": "CCCCCCCCCCCCCCCC[N+](C)(C)C", "cell viability": 43.7}, {"smiles": "NC(=O)C1(N2CCCCC2)CCN(CCCC(=O)c2ccc(F)cc2)CC1", "cell viability": 87.1}, {"smiles": "CNC1(C)C2CCC(C2)C1(C)C", "note": "(centres undefined)", "cell viability": 102}, {"smiles": "C=C(NC(=O)C(=C)NC(=O)c1csc(C2=N[C@@H]3c4csc(n4)[C@H]4NC(=O)c5csc(n5)[C@H]([C@](C)(O)[C@@H](C)O)NC(=O)[C@H]5CSC(=N5)/C(=C/C)NC(=O)[C@H]([C@@H](C)O)NC(=O)c5csc(n5)[C@]3(CC2)NC(=O)[C@H](C)NC(=O)C(=C)NC(=O)[C@H](C)NC(=O)[C@H]([C@@H](C)CC)N[C@@H]2C=Cc3c([C@H](C)O)cc(nc3[C@H]2O)C(=O)O[C@@H]4C)n1)C(N)=O", "cell viability": 78.1}, {"smiles": "C[C@@H]1CC2C3C[C@H](F)C4=CC(=O)C=C[C@]4(C)[C@@]3(F)[C@@H](O)C[C@]2(C)[C@@]1(O)C(=O)COC(=O)C(C)(C)C", "note": "(some centres undefined)", "cell viability": 70.2}, {"smiles": "NC(=O)c1cccnc1", "cell viability": 94.4}, {"smiles": "CCCc1nc(C(C)(C)O)c(C(=O)OCc2oc(=O)oc2C)n1Cc1ccc(-c2ccccc2-c2nnn[nH]2)cc1", "cell viability": 88.1}, {"smiles": "c1ccc2c(-c3cnn4cc(-c5ccc(N6CCNCC6)cc5)cnc34)ccnc2c1", "cell viability": 37.8}, {"smiles": "CC1=C(C(=O)O)N2C(=O)[C@@H](NC(=O)[C@H](N)c3ccc(O)cc3)[C@H]2SC1", "cell viability": 99.1}, {"smiles": "Cc1[nH]c(/C=C2\\C(=O)Nc3ccc(S(=O)(=O)Cc4c(Cl)cccc4Cl)cc32)c(C)c1C(=O)N1CCC[C@@H]1CN1CCCC1", "cell viability": 92.1}, {"smiles": "OC[C@H]1O[C@@H](O[C@H]2[C@H](O)[C@@H](O)[C@@H](O)O[C@@H]2CO)[C@H](O)[C@@H](O)[C@@H]1O", "cell viability": 105}, {"smiles": "CC1=CCCC(C)=CCC(C)(C)C=CC1", "note": "[HUMULENE (alpha)]", "cell viability": 113}, {"smiles": "CC(C)c1onc(-c2c(Cl)cccc2Cl)c1COc1ccc(/C=C/c2cccc(C(=O)O)c2)c(Cl)c1", "cell viability": 81.8}, {"smiles": "CCOc1nc2cccc(C(=O)OC(C)OC(=O)OC3CCCCC3)c2n1Cc1ccc(-c2ccccc2-c2nn[nH]n2)cc1", "note": "(centres undefined)", "cell viability": 88.9}, {"smiles": "Nc1ccc(S(N)(=O)=O)cc1", "cell viability": 97.1}, {"smiles": "Nc1ncnc2c1ncn2[C@H]1C[C@H](O)[C@@H](CO)O1", "cell viability": 90.9}, {"smiles": "COc1ccc2c(c1)OCC(Cc1ccc(OC)c(OC)c1)C2=O", "note": "(centres undefined)", "cell viability": 112}, {"smiles": "Cn1c(=O)c(F)c(Nc2ccc(I)cc2F)c2c(=O)n(C[C@@H](O)CO)cnc21", "cell viability": 24.8}, {"smiles": "COc1ccc([C@H]2Oc3cc(OC)cc(OC)c3C[C@H]2O)cc1", "cell viability": 98.4}, {"smiles": "CC[C@]12CCCN3CCc4c(n(c5ccccc45)[C@@](O)(C(=O)OC)C1)[C@@H]32", "cell viability": 107}]}]}
